Reference: patent publication US5639868

Chains of the proteins cited; added tags and fusions are not shown. Residues count along the entry.
UniProt P09038, 135-288: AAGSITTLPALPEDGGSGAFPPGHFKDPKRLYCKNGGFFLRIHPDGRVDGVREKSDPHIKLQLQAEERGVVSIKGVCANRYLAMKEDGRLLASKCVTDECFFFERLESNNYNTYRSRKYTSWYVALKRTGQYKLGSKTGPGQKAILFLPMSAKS

Target: basic fibroblast growth factor (bFGF, FGF-2) (UniProt P09038)
Test: inhibition of the protein
Conditions: 2'-NH2 at all C and U, purified recombinant protein, protein details: Bachem California, 18 kDa, 154 amino acids, dose not given here

Sequence: GGGAGACAAGAAUAACGCUCAAGUAGACUAAUGUGUGGAAGACAGCGGGUGGUUCGACAGGAGGCUCACAACAGGC [2'-NH2 21A]
- functional effect of the aptamer (inhibits 125I-bFGF binding to receptors on BHK cells, also reduced bFGF-induced rat corneal vascular ingrowth (Table X: day 7 972 to 623, day 14 1528 to 900)): active

Sequence: GGUGUGUGGAAGACAGCGGGUGGUUC [2'-NH2 21A-t]
- functional effect of the aptamer (most effective inhibitor of 125I-bFGF binding to low- and high-affinity receptors, BHK cells, variant of 2'-NH2 21A): active

Construct, isoform or probe ends are uncertain for at least one entry.
